Experimental findings from the supplement of paper PMC12889115 are described below.

For this experiment, the system named is Salmonella enterica serovar Typhimurium SL1344. The experiment is described as follows: bacterial growth OD600 after 18 h with compound and polymyxin B; higher = more bacterial growth (less inhibition). The settings on record: 50 µM, Mueller-Hinton broth.

The list shows a part of the results. These are raw signals, not scaled to a control.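 Primary screen: polymyxin B was added at a level permeabilizing Salmonella outer membranes while sparing inner membranes. DMSO wells, both with and without polymyxin B, established maximum growth. Plate-to-plate variation meant each plate was ranked on its own, and the lowest-OD600 compounds were selected as hits.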

For the compound `COc1ccc(CN2CCN(Cc3ccc(OC)cc3F)C(CCO)C2)cc1` (stereo not given), under “polymyxin B 1 µg/mL”, the “bacterial growth OD600” value was 0.846. With `C/C=C(\C)CN1CCCC(Nc2cccc(F)c2)C1` (stereo not given), the “bacterial growth OD600” value (polymyxin B 0.75 µg/mL) was 0.866. Same read-out and setting: with `O=C(COc1ccccc1)N1CCC(C2CCN(c3ncccn3)CC2)C1` (stereo not given) the figure was 0.75. As for `O[C@@H]1CN(Cc2ccsc2)CC[C@H]1N1CCN(CCc2ccccc2)CC1`, the “bacterial growth OD600” value (polymyxin B 1 µg/mL) is 1.09. Take `COc1ccc(CC2(CCC(=O)NCc3c(F)cccc3F)CCC(=O)N2)c(F)c1` (stereo not given): the “bacterial growth OD600” value (polymyxin B 0.75 µg/mL) amounted to 0.828. On the same count and under the same terms, with `Cc1ccccc1SC1CCN(C(=O)Cn2cc(NC(=O)CCOc3ccccc3)cn2)CC1` the figure was 0.854; with `Cn1ccnc1C1CCCCN1C(=O)CC1(c2ccccc2)CC(=O)N(CCc2ccccn2)C1=O` (stereo not given), 0.923. Consider `COc1cccc(CNC(=O)CCC2CCCN(Cc3cccc(C)n3)C2)c1` (stereo not given), for which the “bacterial growth OD600” value (polymyxin B 1 µg/mL) is 1.09. In the case of `CCC(=O)N[C@@H]1c2ccccc2C2(CCN(C(=O)c3ccc(C)cc3)CC2)[C@H]1OCc1cccnc1`, where the note is “polymyxin B 0.75 µg/mL”, the “bacterial growth OD600” value was determined as 0.596. Still for that read-out and setting: with `COc1cc(CC2(CCC(=O)N3CCC(c4ccccc4Cl)C3)CCC(=O)N2)ccc1F` (stereo not given) the figure was 0.778; with `O=C(NCc1ccccc1)C1CCCN(C2CCN(C3CCCCC3)CC2)C1` (stereo not given), 0.762. With `CN(C)c1ncccc1CNS(=O)(=O)c1ccc2c(c1)OCCO2`, the “bacterial growth OD600” value (polymyxin B 1 µg/mL) is 0.942.

In the case of `CNC(C)c1cnc(N2CCCCCCC2)nc1C` (stereo not given), the “bacterial growth OD600” value (polymyxin B 0.75 µg/mL) is 0.497. Still for that read-out and setting: with `COCCCN1C(=O)CC(CC(=O)NCc2cnn(-c3ccccc3C)c2)(c2ccccc2C)C1=O` (stereo not given) the figure was 0.722. On the same count and under the same terms, with `Cc1ccc2c(c1)CN(C1CCC1)CC(c1ccsc1)O2` (stereo not given) the figure was 0.616; with `O=C(c1sccc1Cl)N1CCOc2ccc(CN3CCN(c4ccccn4)CC3)cc2C1`, 0.842; with `Cc1nc(N(C)C2CCCCC2)ncc1C(C)NCc1ccccn1` (stereo not given), 0.527.

`Cn1c(C2CCC2)nc2cc(C(=O)NCCc3c[nH]c4ccccc34)cc(NC(=O)C3CCCO3)c21` (stereo not given): the “bacterial growth OD600” value (polymyxin B 0.75 µg/mL) stood at 0.779. On the same count and under the same terms, with `CCOc1ccc2nc(N3CCCC(C(=O)N(C)Cc4nccn4C)C3)nc(C)c2c1` (stereo not given) the figure was 0.809. For `COc1cc(OC)c(OC)cc1CN1CCCC(CO)(Cc2cccc(Cl)c2)C1` (stereo not given), the “bacterial growth OD600” value (polymyxin B 1 µg/mL) amounted to 0.841. The same measure, in the same setting: with `O=C1CCCN1CCC1CCCCN1Cc1nc(-c2ccccn2)no1` (stereo not given) the figure was 0.972. In the case of `COc1ccc2nc(CNC(=O)c3oc4ccc(C)cc4c3C)[nH]c2c1`, for the setting “polymyxin B 0.75 µg/mL”, the “bacterial growth OD600” value is 0.67. Turning to `CN(Cc1ccc2nccnc2c1)C(=O)c1ccc(OC2CCN(C(=O)C3CC3)CC2)cc1`, the “bacterial growth OD600” value (polymyxin B 1 µg/mL) worked out at 1.07. Consider `CN(Cc1ccc2ccccc2n1)C(=O)c1ccc(OCC2(C)CCCNC2)nc1` (stereo not given), for which, under “polymyxin B 0.75 µg/mL”, the “bacterial growth OD600” value stood at 0.768. The same measure, in the same setting: the result for `CN(CC1CCCCO1)C(=O)CCC1(Cc2ccc3ccccc3c2)CCC(=O)N1` (stereo not given) reads 0.881.

Take `O=C(CCC1CCN(C(=O)C2CCOCC2)CC1)NCc1cccc(C(F)(F)F)c1`: the “bacterial growth OD600” value (polymyxin B 1 µg/mL) was 0.937. `CCN(CC)C(=O)c1cnn(-c2nccc(-c3ccc4c(c3)OCO4)n2)c1C`: where the note is “polymyxin B 0.75 µg/mL”, the “bacterial growth OD600” value came to 0.762. For `CN(CCN1CCOCC1)C(=O)CC(c1ccccc1)c1cccc(Cl)c1` (stereo not given), the “bacterial growth OD600” value (polymyxin B 1 µg/mL) worked out at 0.652. With `COC(C(=O)NCc1c(C)ncc2c1CCN(C(=O)c1ccc3c(c1)OCO3)C2)c1ccccc1` (stereo not given), the “bacterial growth OD600” value (polymyxin B 0.75 µg/mL) is 0.881. On the same count and under the same terms, the result for `CCCCN(C)C(=O)c1coc(COc2cccc3cccnc23)n1` reads 0.792.
